Data source: PubChem BioAssay AID504791 (Drosophila RNAi Screening Center, 2011)
The deposit covers about 23,000 reagents; this is a random part of those with a known target gene and a result. Of all reagents, 199 (0.86%) got an active call. 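Plate-scaled ratios behind the calls are not deposited; printed light signals are raw; many rows marked increased or decreased are still called inactive.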 Not stated in the record: the direction of the score.

Aim: 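Genes whose knock-down strengthens or weakens small-RNA reporter silencing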 (primary screen)
Cells: Drosophila S2-derived reporter cells
Reagents: long dsRNA against Drosophila genes, about 150-250 ng dsRNA per well (siRNA assay); about 80-120 ng (miRNA assay)
Time to read-out: about 5 days (siRNA assay); about 4 days (miRNA assay)
Challenge: copper sulfate induction of reporters: 25 µM (siRNA assay); 200 mM stated (miRNA assay), 1-2 days before reading
Measured: 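Dual luciferase assay: Renilla to firefly signal ratio in each well, scaled to the mean ratio of its plate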
Units: stable assay Renilla, run 1 in luminescence; stable assay firefly, run 1 in luminescence
Hit rule: 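a well was a first-pass pick when its plate-scaled ratio rose above 1.5 (siRNA assay) or 1.6 (miRNA assay), or dropped below 0.6; a gene counted only if two separate dsRNAs agreed on retest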

What is on record for E(spl)m6-BFM [SID104196785]?
stable assay Renilla, run 1: 7222; stable assay firefly, run 1: 3.58e5; outcome: inactive

With Rala [SID104198495], how do the results read?
stable assay Renilla, run 1: 6052; stable assay firefly, run 1: 4.84e5; outcome: inactive

What did the screen give for CG40378 (retired record) [SID104200750]?
stable assay Renilla, run 1: 4200; stable assay firefly, run 1: 4.57e5; outcome: inactive

With CG40378 (retired record) [SID104201718], what does the deposit list?
stable assay Renilla, run 1: 8475; stable assay firefly, run 1: 4.69e5; outcome: inactive

With CG40198 [SID104200860], how do the results read?
stable assay Renilla, run 1: 4183; stable assay firefly, run 1: 3.81e5; outcome: inactive

What did the screen give for CG2926 [SID104192113]?
stable assay Renilla, run 1: 8770; stable assay firefly, run 1: 4.27e5; outcome: inactive

Reformatted: results already given
| Target gene | PubChem SID | stable assay Renilla, run 1 | stable assay firefly, run 1 | outcome |
| --- | --- | --- | --- | --- |
| Rala | SID104198495 | 6052 | 4.84e5 | inactive |
| CG40378 (retired record) | SID104200750 | 4200 | 4.57e5 | inactive |

Next entries follow.
With kek3 [SID104183345], what was measured?
stable assay Renilla, run 1: 5408; stable assay firefly, run 1: 4.13e5; outcome: inactive

For kek3 [SID104202189], how do the results read?
stable assay Renilla, run 1: 3539; stable assay firefly, run 1: 3.55e5; outcome: inactive

For CG15657 [SID104184040], what was measured?
stable assay Renilla, run 1: 6703; stable assay firefly, run 1: 4.82e5; outcome: inactive

How did the screen score Coa7 [SID104200759]?
stable assay Renilla, run 1: 7175; stable assay firefly, run 1: 6.56e5; outcome: inactive

What is on record for inaD [SID104184486]?
stable assay Renilla, run 1: 6471; stable assay firefly, run 1: 4.34e5; outcome: inactive

For b6 [SID104198532], how do the results read?
stable assay Renilla, run 1: 6535; stable assay firefly, run 1: 4.76e5; outcome: inactive
